Laboratory results reported in patent US5965700 (dated 1999).

Test: general procedure: solution-phase peptide synthesis
Conditions: coupling step, HCl

**Q.** With Val-MeVal-Pro-Pro-NHBz×HCl as the substance, how does the step yield read?
**A.** Its step yield is 74.1%.
